# Measured values from patent US5003011A (The Administrators of the Tulane Educational Fund, priority 1989, dated 1991).
# Assay: general procedure: Boc solid-phase peptide synthesis; benzhydrylamine resin
# Conditions: whole synthesis, scale 0.5 mmole
substance,measurement,value
N-Ac-D-β-Nal-D-Phe-D-Phe-Ser-Try-D-Arg-Phe-Arg-Pro-D-Ala,isolated mass,117 mg
